Laboratory results taken from US20110142840A1 (ONCOMED PHARMACEUTICALS, published 2011).
These are yes or no findings as the source states them, for the method shown. Some results given as binding are weak or reduced against the parent protein; the word gives no strength.

The chains behind the UniProt entries cited, without tags or fusion partners. Residues count along the entry.
UniProt P08581, residues 27-515: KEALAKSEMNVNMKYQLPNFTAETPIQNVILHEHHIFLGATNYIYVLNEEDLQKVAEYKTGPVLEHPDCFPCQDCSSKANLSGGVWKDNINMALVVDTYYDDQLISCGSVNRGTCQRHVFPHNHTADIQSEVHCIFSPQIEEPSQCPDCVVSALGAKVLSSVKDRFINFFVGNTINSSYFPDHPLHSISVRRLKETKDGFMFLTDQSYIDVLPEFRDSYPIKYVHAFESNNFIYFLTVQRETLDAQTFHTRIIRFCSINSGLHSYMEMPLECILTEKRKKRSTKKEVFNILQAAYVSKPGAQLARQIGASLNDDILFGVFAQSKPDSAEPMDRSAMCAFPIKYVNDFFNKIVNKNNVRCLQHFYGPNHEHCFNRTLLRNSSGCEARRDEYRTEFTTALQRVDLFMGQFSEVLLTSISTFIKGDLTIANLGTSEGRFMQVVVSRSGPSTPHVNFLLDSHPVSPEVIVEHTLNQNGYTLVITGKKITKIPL

Molecular target: T1, recombinant human MET SEMA domain (human, UniProt P08581 27-515)
T1 construct: domain: SEMA; also called SEMA domain of MET-ECD
Assay: plate binding assay, 384-well plates coated with recombinant domains

- binding: binds
B1: 13-MET human IgG1 antibody (antibody, V domains shown)
VH: QVQLKESGPALVKPTQTLTLTCTFSGFSLSTSGMVVSWIRQPPGKALEWLAFISWDDDKYYSTSLKTRLTISKDTSKNQVVLTMTNMDPVDTATYYCAREPGRYGGYYFDYWGQGTLVTVSS
VL: DIQMTQSPSSLSASVGDRVTITCRASQTISHYLAWYQQKPGKAPKLLIYAASILQSGVPSRFSGSGSGTDFTLTISSLQPEDFAVYYCQQYSGFPVTFGQGTKVEIKR
notes: Fab variable regions combined with human constant regions to give a full human IgG1; ATCC deposit PTA-9148; also called 13-MET IgG; MET-13 IgG
